These are yes or no findings as the source states them, for the method shown. In cells and extracts the contact can be indirect. Some entries that bind do so weakly or less than the wild type.

This test has as its target T1, TGF-beta activated kinase 1 (MAP3K7) binding protein 3 (human (231 is a human TNBC cell line; endogenous or transfected not stated for Figure 6G, H)) (UniProt Q8N5C8).
T1 sequence: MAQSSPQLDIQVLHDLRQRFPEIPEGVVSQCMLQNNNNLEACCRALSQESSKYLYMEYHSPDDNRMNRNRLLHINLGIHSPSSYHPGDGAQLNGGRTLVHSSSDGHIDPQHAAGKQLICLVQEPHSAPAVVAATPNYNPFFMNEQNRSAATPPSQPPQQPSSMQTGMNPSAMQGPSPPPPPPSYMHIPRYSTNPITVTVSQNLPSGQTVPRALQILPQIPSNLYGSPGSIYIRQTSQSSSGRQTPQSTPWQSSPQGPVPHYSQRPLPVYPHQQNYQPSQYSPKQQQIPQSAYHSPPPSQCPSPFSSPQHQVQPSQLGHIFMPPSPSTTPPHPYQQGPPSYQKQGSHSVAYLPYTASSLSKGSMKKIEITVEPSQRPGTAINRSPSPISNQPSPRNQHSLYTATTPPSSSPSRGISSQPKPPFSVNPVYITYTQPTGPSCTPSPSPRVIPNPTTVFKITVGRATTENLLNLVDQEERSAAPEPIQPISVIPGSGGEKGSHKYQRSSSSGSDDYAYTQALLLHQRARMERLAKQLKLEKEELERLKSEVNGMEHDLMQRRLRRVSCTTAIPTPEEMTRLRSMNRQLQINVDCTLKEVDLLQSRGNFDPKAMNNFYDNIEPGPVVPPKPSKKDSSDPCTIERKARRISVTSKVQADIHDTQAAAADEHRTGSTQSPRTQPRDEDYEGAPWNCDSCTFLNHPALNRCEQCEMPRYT
Nature of the test: co-IP; immunoprecipitation with TAB3 antibody, blot for endogenous TAB2; cells with or without Lnc-PCIR overexpression (association decreased on overexpression).

B1: TGF-beta activated kinase 1 (MAP3K7) binding protein 2 (protein, UniProt Q9NYJ8 1-693)
chain: MAQGSHQIDFQVLHDLRQKFPEVPEVVVSRCMLQNNNNLDACCAVLSQESTRYLYGEGDLNFSDDSGISGLRNHMTSLNLDLQSQNIYHHGREGSRMNGSRTLTHSISDGQLQGGQSNSELFQQEPQTAPAQVPQGFNVFGMSSSSGASNSAPHLGFHLGSKGTSSLSQQTPRFNPIMVTLAPNIQTGRNTPTSLHIHGVPPPVLNSPQGNSIYIRPYITTPGGTTRQTQQHSGWVSQFNPMNPQQVYQPSQPGPWTTCPASNPLSHTSSQQPNQQGHQTSHVYMPISSPTTSQPPTIHSSGSSQSSAHSQYNIQNISTGPRKNQIEIKLEPPQRNNSSKLRSSGPRTSSTSSSVNSQTLNRNQPTVYIAASPPNTDELMSRSQPKVYISANAATGDEQVMRNQPTLFISTNSGASAASRNMSGQVSMGPAFIHHHPPKSRAIGNNSATSPRVVVTQPNTKYTFKITVSPNKPPAVSPGVVSPTFELTNLLNHPDHYVETENIQHLTDPTLAHVDRISETRKLSMGSDDAAYTQALLVHQKARMERLQRELEIQKKKLDKLKSEVNEMENNLTRRRLKRSNSISQIPSLEEMQQLRSCNRQLQIDIDCLTKEIDLFQARGPHFNPSAIHNFYDNIGFVGPVPPKPKDQRSIIKTPKTQDTEDDEGAQWNCTACTFLNHPALIRCEQCEMPRHF
Turning to B1, the binding entry is listed as “binds”.

For the origin of these results see paper PMC8128249.
